Measurements reported in PubChem BioAssay AID504808 (Drosophila RNAi Screening Center, 2011).

Purpose: 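Chromatin factors that keep E2F targets switched off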 (primary screen)
System: Drosophila S2 cells
Knock-down reagent: long dsRNA against Drosophila genes
Detection: 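Firefly luciferase driven by E2F sites, normalised to Renilla luciferase on the same minimal promoter, measured by plate reader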
Direction: E2F firefly: higher = more E2F reporter activity; Renilla normaliser: higher = more normaliser reporter signal
Call rule: 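Called active if the normalised E2F reporter went up by over 50%; the cutoff is arbitrary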
In all, the deposit lists about 21,000 reagents; below is a random part of those that have a named target and a result. Over the whole deposit, 18 (0.084%) were called active. 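Raw counts without plate normalisation, one of two replicates; the ratio scores behind the calls were not deposited.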 Entries without a mark were called inactive. The numbers tell different reagents against one gene apart. A plus sign joins genes that one reagent is predicted to hit. The record does not give: the amount of reagent, the time to read-out.

spag (GeneID 43958) → E2F firefly, rep 1: 1.12e5; Renilla normaliser, rep 1: 4825
CG34296 (GeneID 5740662) → E2F firefly, rep 1: 82197; Renilla normaliser, rep 1: 2674
lbl (GeneID 42541) → E2F firefly, rep 1: 1.54e5; Renilla normaliser, rep 1: 8500
vri (GeneID 33759) → E2F firefly, rep 1: 1.37e5; Renilla normaliser, rep 1: 4557
sro (GeneID 43512) → E2F firefly, rep 1: 1.53e5; Renilla normaliser, rep 1: 6616
CG11249 (GeneID 40409) → E2F firefly, rep 1: 1.33e5; Renilla normaliser, rep 1: 6804
CG34188 (GeneID 5740108) → E2F firefly, rep 1: 1.30e5; Renilla normaliser, rep 1: 5570
CG15891 + CG15892 #1 → E2F firefly, rep 1: 8002; Renilla normaliser, rep 1: 760
CG15891 + CG15892 #2 → E2F firefly, rep 1: 1.04e5; Renilla normaliser, rep 1: 4872
TBC1d7 (GeneID 42869) → E2F firefly, rep 1: 97361; Renilla normaliser, rep 1: 5317
CG14634 (GeneID 50366) → E2F firefly, rep 1: 39272; Renilla normaliser, rep 1: 3207
CG30099 (GeneID 36818) → E2F firefly, rep 1: 1.52e5; Renilla normaliser, rep 1: 5103
eIF3c (GeneID 37005) → E2F firefly, rep 1: 1.11e5; Renilla normaliser, rep 1: 5535
Ugt35B1 (GeneID 41333) → E2F firefly, rep 1: 70341; Renilla normaliser, rep 1: 3651
CG12795 (GeneID 33561) → E2F firefly, rep 1: 1.41e5; Renilla normaliser, rep 1: 4838
CG31882 (GeneID 319000) → E2F firefly, rep 1: 1.48e5; Renilla normaliser, rep 1: 6416
Ugt304A1 (GeneID 53501) → E2F firefly, rep 1: 1.54e5; Renilla normaliser, rep 1: 6942
CG15048 (retired record) (GeneID 32842) → E2F firefly, rep 1: 1.51e5; Renilla normaliser, rep 1: 6110
Ptpmeg2 (GeneID 31907) #1 → E2F firefly, rep 1: 1.30e5; Renilla normaliser, rep 1: 5682
Ptpmeg2 (GeneID 31907) #2 → E2F firefly, rep 1: 1.24e5; Renilla normaliser, rep 1: 5921
Smg5 (GeneID 34804) → E2F firefly, rep 1: 57889; Renilla normaliser, rep 1: 3582
ttm3 (GeneID 35437) → E2F firefly, rep 1: 1.03e5; Renilla normaliser, rep 1: 4305
Eaf6 (GeneID 38637) → E2F firefly, rep 1: 1.04e5; Renilla normaliser, rep 1: 3605
CG44422 (GeneID 32063) #1 → E2F firefly, rep 1: 82146; Renilla normaliser, rep 1: 2145
CG44422 (GeneID 32063) #2 → E2F firefly, rep 1: 37851; Renilla normaliser, rep 1: 2972
CG44422 (GeneID 32063) #3 → E2F firefly, rep 1: 86804; Renilla normaliser, rep 1: 4337
qkr58E-1 (GeneID 37561) → E2F firefly, rep 1: 85563; Renilla normaliser, rep 1: 3825
Nrt (GeneID 39873) → E2F firefly, rep 1: 78070; Renilla normaliser, rep 1: 3593

Sorted by “Renilla normaliser, rep 1” (highest first): 3 of the entries above.
lbl (GeneID 42541) → E2F firefly, rep 1: 1.54e5; Renilla normaliser, rep 1: 8500
sro (GeneID 43512) → E2F firefly, rep 1: 1.53e5; Renilla normaliser, rep 1: 6616
vri (GeneID 33759) → E2F firefly, rep 1: 1.37e5; Renilla normaliser, rep 1: 4557
